For 42 sequences, binding signal results are on record in PMC7819943, “Rice protein-binding microarrays: a tool to detect cis-acting elements near promoter regions in rice”.

This is one part of the list.

For the assay, the target named is T1, OsSMF1 (Oryza sativa, UniProt Q6ZLB0 1-436).
T1 sequence: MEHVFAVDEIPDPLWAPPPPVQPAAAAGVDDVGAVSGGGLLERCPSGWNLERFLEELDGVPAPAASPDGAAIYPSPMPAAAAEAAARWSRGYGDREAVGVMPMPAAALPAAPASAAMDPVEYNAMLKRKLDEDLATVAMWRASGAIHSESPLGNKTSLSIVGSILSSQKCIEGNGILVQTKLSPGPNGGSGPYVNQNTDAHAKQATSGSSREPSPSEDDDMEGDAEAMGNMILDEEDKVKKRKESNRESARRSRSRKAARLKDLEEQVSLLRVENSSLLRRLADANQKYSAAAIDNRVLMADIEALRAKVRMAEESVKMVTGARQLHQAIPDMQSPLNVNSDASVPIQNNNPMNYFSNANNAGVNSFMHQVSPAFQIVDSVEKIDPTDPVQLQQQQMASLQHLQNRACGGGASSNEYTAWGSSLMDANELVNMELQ
Briefly: protein-binding microarray (RPBM); PBS, 2% BSA, 51.3 ng/ul salmon testes DNA, 50 uM zinc acetate, 200 nM TF, 25 C, 1 h; high values mean tight binding. The conditions noted are these: protein: recombinant; tags: N-terminal polyhistidine and DsRed monomer fusion (pET32a); chain copies: 2; label: CyDye5-dUTP incorporated in the synthesized complementary strand; 3' TTTTT single-stranded linker to array surface; dsDNA, one strand shown. Summed up: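 In PBS with 2% BSA, salmon testes DNA and 50 µM zinc acetate, 200 nM protein was incubated on a custom Agilent array at 25 °C for 1 h and then washed off. The array had been made double-stranded by primer extension with Cy5-dUTP and blocked with 2% BSA. The proteins were transcription factors fused N-terminally to polyhistidine and DsRed, expressed in E. coli BL21-CodonPlus and purified on Ni–NTA. The binding signal is per-feature fluorescence intensity (arbitrary units) from an Axon 4000B scanner.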
Turning to “AATCTACTCCGGACGAGGAGTAATTTGGAGCGTGACAAGCCGGAGTCACCTAGTGCAG”, the binding signal was 23800 fluorescence intensity (a.u.).

Regarding “CTGATCTCGCCGTCCCGAGTTCGCCGGACACGCACGCACGCGGAGTCACCTAGTGCAG”, the binding signal was 20600 fluorescence intensity (a.u.).

Regarding “CCATGAGGCCATGACATCAAAATACTTCCAACGCAGCAAACGGAGTCACCTAGTGCAG”, the binding signal is 3500 fluorescence intensity (a.u.).

For “CTTGGGCGCATGTGTGTCACCCTCTCCTTCCATTGATCCTCGGAGTCACCTAGTGCAG”, the binding signal was 4590 fluorescence intensity (a.u.).

Turning to “GATTCGGAGAATGGCCACGCGTCCCTCGCCACGTCCGATTCGGAGTCACCTAGTGCAG”, the binding signal is 9490 fluorescence intensity (a.u.).

As to “CAGCTGAACCATGGAAGGGAGCTACATGCAGCGCTTCTGACGGAGTCACCTAGTGCAG”, the binding signal is 3200 fluorescence intensity (a.u.).

In the case of “TTGTCGCTCCTCATCCCCGTCACCGAACTGTTGCCGCAACCGGAGTCACCTAGTGCAG”, the binding signal is 4980 fluorescence intensity (a.u.).

“TTCTCATCACGGTAAATTCAGCAAGTTCAGGCAACAATTGCGGAGTCACCTAGTGCAG”: the binding signal was 38000 fluorescence intensity (a.u.).

Take “CGCTCCCGCCACCGCCACATCCCTCGCCGCCGCTTCGCCTCGGAGTCACCTAGTGCAG”: the binding signal was 4710 fluorescence intensity (a.u.).

As to “GGCACCACGCAGTTGTACACAGTTGTACGCGTCGTCGTGCCGGAGTCACCTAGTGCAG”, the binding signal is 4190 fluorescence intensity (a.u.).

As to “CATGTTGTAGCACATTTGGCATCTCTCCAGTAATGACTAACGGAGTCACCTAGTGCAG”, the binding signal was 4540 fluorescence intensity (a.u.).

As to “ATTTTATTTGTGATGTTGTGAATGAATCTACTACATATGTCGGAGTCACCTAGTGCAG”, the binding signal is 3210 fluorescence intensity (a.u.).

For “CAATCGTTCGGTTTGGTGCACAAGAATTCCTGCAACAGTACGGAGTCACCTAGTGCAG”, the binding signal is 3210 fluorescence intensity (a.u.).

In the case of “AAGGCTGGAATAATACAGTAGTTGACTGACTCGGTCTCCTCGGAGTCACCTAGTGCAG”, the binding signal is 3420 fluorescence intensity (a.u.).

On to “GCATGACGTACGCTTCGTGACGTAAGGCCTCATGCCCTATCGGAGTCACCTAGTGCAG”, for which the binding signal is 13500 fluorescence intensity (a.u.).

In the case of “CCGCCACACCCGCAACCCTAGATAGCAGCGTGCGCCCTTCCGGAGTCACCTAGTGCAG”, the binding signal is 25400 fluorescence intensity (a.u.).

For the sequence “CCAATATATAATTGCCACGTCATCGCCGCGTCAATGCCACCGGAGTCACCTAGTGCAG”, the binding signal was 28100 fluorescence intensity (a.u.).

As to “GTCGAAATGAAGGGGAGGGAGAGACTGACGTGTGGTCCCTCGGAGTCACCTAGTGCAG”, the binding signal was 8650 fluorescence intensity (a.u.).

On to “CGGTGGTCGACGGAGACAGGGACCGAAACGCGTGGCGTCGCGGAGTCACCTAGTGCAG”, for which the binding signal is 5260 fluorescence intensity (a.u.).

As to “CAAACAATACGCGTACCCACGTGGCCAGGTACACGTTACGCGGAGTCACCTAGTGCAG”, the binding signal was 11500 fluorescence intensity (a.u.).

Turning to “GACGAAGCTCTTGATGGCGTCGACGAGCTCCCGGGTCCTCCGGAGTCACCTAGTGCAG”, the binding signal is 3320 fluorescence intensity (a.u.).

In the case of “CCTCACTCTACCCAACACCCACAGACACGTGGGACCCACGCGGAGTCACCTAGTGCAG”, the binding signal was 8010 fluorescence intensity (a.u.).

As for “TATATAAACTTTATATACGTCATATACAAACTTTGTATATCGGAGTCACCTAGTGCAG”, the binding signal was 3520 fluorescence intensity (a.u.).

As for “GTGAGAATTTCTAGGCCATGAGAGCGAACGTGGAGGATTCCGGAGTCACCTAGTGCAG”, the binding signal was 3570 fluorescence intensity (a.u.).

For the sequence “GCGTCGCCTGGTGGCGTAGCTATCCATGACCGCGCACACGCGGAGTCACCTAGTGCAG”, the binding signal was 3320 fluorescence intensity (a.u.).

In the case of “TCACCGCGAGCCGCCGCCAGTGTGATCACTCTAACATTGGCGGAGTCACCTAGTGCAG”, the binding signal was 29900 fluorescence intensity (a.u.).

With “TCACGCTGACCAAACACCATCTGTTATTCTGTTTGTTTGTCGGAGTCACCTAGTGCAG”, the binding signal was 3640 fluorescence intensity (a.u.).

Turning to “CGTACATCGACTTGGGCAGCGACACGTGTCGTTTCGTTTGCGGAGTCACCTAGTGCAG”, the binding signal was 15300 fluorescence intensity (a.u.).

In the case of “AGGATACACACATCACTCTAATCCTCCATTACCTATGACACGGAGTCACCTAGTGCAG”, the binding signal is 4780 fluorescence intensity (a.u.).

For “GTGTCGCCGTGTGTGTACAAATAATATGCCAACCTGGCCGCGGAGTCACCTAGTGCAG”, the binding signal was 4000 fluorescence intensity (a.u.).

With “ACGAACTTGAGAATGATGGGTGGGTGAAACGTGTGAGCTCCGGAGTCACCTAGTGCAG”, the binding signal was 4030 fluorescence intensity (a.u.).

For the sequence “CGCGTCGTCGTGGACTCGTGGCGCCCATGTCGCGTCGCGGCGGAGTCACCTAGTGCAG”, the binding signal was 3750 fluorescence intensity (a.u.).

“CGCGTTTATACTGTGTGTAAATGGTGTTTGGCCACGACATCGGAGTCACCTAGTGCAG”: the binding signal is 3520 fluorescence intensity (a.u.).

As for “TGCACTATGCACTGCATCCGTCAAAGGCGCCGCACGTGGCCGGAGTCACCTAGTGCAG”, the binding signal was 3510 fluorescence intensity (a.u.).

For the sequence “CCGCCAAACAGAGTGTTGGAAGGTGCCGCTCTGCCCTGTTCGGAGTCACCTAGTGCAG”, the binding signal was 3280 fluorescence intensity (a.u.).

Regarding “CACGCGCATCCACGCAAACCCTACCAGCCTCTCTCTCCCGCGGAGTCACCTAGTGCAG”, the binding signal is 3760 fluorescence intensity (a.u.).

As to “ACATACCTTCAGATGACGCGGGGCGTCGGCGGTCGAGGGTCGGAGTCACCTAGTGCAG”, the binding signal was 3830 fluorescence intensity (a.u.).

For “GGGAACATTGTGTGCCAAAATTGACTCACGAATATACAAGCGGAGTCACCTAGTGCAG”, the binding signal is 3340 fluorescence intensity (a.u.).

Take “TCATGGACCGCGTCACCGATCCAACGCGGCCCACTCGCATCGGAGTCACCTAGTGCAG”: the binding signal is 4080 fluorescence intensity (a.u.).

Regarding “TTGTGCCTCAAGCCCTAACCTAGCCCAACGTCATTCCCGGCGGAGTCACCTAGTGCAG”, the binding signal was 3380 fluorescence intensity (a.u.).

With “GTAAAATTAGCAGTTAGAAATCCGGCTTACGTGTAGACTGCGGAGTCACCTAGTGCAG”, the binding signal is 5880 fluorescence intensity (a.u.).

Consider “CAAATCTAGATGTACTCATAACATGACACATCAGTGTTAGCGGAGTCACCTAGTGCAG”, for which the binding signal was 3240 fluorescence intensity (a.u.).
